The text below walks through data of article PMC8586334.

Sequences of proteins named here, by UniProt entry; tags and fusion partners are left off. A change or cut given only in a name is not applied to a line headed by its entry.
UniProt P22336: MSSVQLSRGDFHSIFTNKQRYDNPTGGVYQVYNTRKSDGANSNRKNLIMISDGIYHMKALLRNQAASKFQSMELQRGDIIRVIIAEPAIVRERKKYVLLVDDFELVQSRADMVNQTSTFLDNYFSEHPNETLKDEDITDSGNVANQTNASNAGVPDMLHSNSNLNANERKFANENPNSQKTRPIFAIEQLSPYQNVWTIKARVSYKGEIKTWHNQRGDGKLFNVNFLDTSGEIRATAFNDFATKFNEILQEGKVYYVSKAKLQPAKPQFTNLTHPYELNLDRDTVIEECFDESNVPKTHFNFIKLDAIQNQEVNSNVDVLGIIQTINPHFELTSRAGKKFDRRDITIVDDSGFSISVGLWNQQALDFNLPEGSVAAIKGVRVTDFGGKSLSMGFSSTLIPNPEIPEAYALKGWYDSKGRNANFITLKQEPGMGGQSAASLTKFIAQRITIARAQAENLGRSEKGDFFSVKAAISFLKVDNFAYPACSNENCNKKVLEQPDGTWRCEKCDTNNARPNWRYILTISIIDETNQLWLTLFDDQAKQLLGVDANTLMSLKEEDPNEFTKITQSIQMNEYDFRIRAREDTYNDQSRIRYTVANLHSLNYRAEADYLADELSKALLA
UniProt P38859: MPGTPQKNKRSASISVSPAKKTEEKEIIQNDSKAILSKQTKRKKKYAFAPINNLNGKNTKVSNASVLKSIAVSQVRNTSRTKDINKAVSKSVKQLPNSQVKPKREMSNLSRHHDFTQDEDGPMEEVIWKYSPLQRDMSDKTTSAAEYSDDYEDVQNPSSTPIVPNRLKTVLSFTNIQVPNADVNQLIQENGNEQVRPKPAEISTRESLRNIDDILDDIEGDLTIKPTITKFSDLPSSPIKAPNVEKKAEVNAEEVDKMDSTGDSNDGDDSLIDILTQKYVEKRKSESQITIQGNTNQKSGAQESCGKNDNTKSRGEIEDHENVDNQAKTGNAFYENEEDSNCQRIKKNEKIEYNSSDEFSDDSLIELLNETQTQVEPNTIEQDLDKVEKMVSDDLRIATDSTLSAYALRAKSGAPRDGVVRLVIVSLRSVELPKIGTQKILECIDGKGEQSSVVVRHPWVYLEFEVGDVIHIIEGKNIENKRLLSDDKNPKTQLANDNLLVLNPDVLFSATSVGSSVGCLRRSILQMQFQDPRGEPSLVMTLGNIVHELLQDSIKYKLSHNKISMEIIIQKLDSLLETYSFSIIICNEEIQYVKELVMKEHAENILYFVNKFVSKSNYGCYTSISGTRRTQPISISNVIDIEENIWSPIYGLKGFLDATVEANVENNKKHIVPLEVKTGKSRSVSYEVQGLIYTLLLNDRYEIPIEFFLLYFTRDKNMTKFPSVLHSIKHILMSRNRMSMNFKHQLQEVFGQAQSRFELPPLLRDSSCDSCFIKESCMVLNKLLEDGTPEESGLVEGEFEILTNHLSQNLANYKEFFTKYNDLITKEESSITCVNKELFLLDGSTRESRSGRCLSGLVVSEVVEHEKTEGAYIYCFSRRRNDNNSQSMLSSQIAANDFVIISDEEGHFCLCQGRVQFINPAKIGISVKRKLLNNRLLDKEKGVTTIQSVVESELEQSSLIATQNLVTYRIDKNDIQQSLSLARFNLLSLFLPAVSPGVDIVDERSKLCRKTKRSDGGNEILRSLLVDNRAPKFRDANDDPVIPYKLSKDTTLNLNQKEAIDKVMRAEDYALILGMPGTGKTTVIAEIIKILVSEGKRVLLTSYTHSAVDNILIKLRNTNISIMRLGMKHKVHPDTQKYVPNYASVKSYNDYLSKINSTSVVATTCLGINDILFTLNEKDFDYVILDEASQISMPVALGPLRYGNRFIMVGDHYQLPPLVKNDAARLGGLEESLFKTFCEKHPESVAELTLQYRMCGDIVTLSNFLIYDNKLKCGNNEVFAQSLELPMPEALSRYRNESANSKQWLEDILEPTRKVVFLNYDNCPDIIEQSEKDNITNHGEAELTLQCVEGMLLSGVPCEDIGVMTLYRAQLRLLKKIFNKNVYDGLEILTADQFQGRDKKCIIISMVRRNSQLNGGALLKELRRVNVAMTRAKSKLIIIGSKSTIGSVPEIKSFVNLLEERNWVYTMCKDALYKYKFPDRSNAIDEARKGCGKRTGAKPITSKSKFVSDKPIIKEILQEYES
UniProt P26754: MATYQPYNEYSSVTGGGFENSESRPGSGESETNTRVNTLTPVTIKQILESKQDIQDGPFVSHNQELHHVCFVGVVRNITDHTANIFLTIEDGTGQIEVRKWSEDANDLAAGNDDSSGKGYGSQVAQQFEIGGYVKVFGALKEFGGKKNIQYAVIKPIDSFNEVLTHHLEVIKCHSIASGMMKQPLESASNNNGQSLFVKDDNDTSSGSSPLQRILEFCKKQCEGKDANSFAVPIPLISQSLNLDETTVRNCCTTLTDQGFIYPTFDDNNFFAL
UniProt P26755: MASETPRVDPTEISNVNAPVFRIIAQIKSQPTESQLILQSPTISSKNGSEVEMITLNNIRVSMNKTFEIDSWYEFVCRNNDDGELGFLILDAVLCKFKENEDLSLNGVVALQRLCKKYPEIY

No constants are given. Whether binding was seen depends on the method and setting. Some entries that bind do so weakly or less than the wild type.

Assay [1] has as its target Rfa1, large subunit, as co-expressed in the S. cerevisiae RPA heterotrimer (S. cerevisiae) (UniProt P22336). In words: mass photometry; no DNA; proteins alone or pre-mixed 15 min at room temperature in 25 mM Tris-acetate pH 7.5, 150 mM NaCl, 3 mM EDTA; final 20-80 nM of each protein; both purified.
Assay [2] concerns the target S. cerevisiae Dna2, wild type (S. cerevisiae) (UniProt P38859). The assay is described as above.
Assay [3] addresses T1, Human mitochondrial ssDNA binding protein (mtSSB) (human) (UniProt Q04837).
T1 sequence: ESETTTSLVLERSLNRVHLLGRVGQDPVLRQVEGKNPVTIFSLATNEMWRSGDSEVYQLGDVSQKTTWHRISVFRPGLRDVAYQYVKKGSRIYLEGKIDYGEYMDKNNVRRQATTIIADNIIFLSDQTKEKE
In words: native gel or EMSA; DNA recruitment assay: Dna2-E675A added to 5'-overhanged DNA (45 nt ssDNA, 48 bp dsDNA, 1 nM) precoated on ice for 5 min with RPA variant or mtSSB (8 nM); 5 mM Mg2+, 150 mM NaCl; 4% polyacrylamide gel; both purified.

For “Rfa2, subunit, as co-expressed in the S. cerevisiae RPA heterotrimer (from UniProt P26754 1-273)”, the binding result in assay [1] is given as “binds”. On to “Rfa3, subunit, as co-expressed in the S. cerevisiae RPA heterotrimer (from UniProt P26755 1-122)”, for which, in assay [1], the binding result is listed as “binds”. Consider “S. cerevisiae Dna2, wild type (from UniProt P38859 1-1522) (enzyme)”, for which the binding entry in assay [2] is “no binding (tested: 20-80 nM)”. For “S. cerevisiae Dna2-E675A (nuclease-dead) (from UniProt P38859 1-1522) (enzyme)”, the binding entry in assay [3] was “no binding”.
